Experimental data reported in patent publication US20030049646A1.
Results are given in words; binding and its absence hold for the method and conditions named. Some binding calls cover weakened binding; strength is not graded here.

By UniProt entry, the sequences of proteins in these tests, tags left out. Where a name states a change or a piece, a line headed by the entry shows the natural chain unless it says otherwise.
UniProt P04386: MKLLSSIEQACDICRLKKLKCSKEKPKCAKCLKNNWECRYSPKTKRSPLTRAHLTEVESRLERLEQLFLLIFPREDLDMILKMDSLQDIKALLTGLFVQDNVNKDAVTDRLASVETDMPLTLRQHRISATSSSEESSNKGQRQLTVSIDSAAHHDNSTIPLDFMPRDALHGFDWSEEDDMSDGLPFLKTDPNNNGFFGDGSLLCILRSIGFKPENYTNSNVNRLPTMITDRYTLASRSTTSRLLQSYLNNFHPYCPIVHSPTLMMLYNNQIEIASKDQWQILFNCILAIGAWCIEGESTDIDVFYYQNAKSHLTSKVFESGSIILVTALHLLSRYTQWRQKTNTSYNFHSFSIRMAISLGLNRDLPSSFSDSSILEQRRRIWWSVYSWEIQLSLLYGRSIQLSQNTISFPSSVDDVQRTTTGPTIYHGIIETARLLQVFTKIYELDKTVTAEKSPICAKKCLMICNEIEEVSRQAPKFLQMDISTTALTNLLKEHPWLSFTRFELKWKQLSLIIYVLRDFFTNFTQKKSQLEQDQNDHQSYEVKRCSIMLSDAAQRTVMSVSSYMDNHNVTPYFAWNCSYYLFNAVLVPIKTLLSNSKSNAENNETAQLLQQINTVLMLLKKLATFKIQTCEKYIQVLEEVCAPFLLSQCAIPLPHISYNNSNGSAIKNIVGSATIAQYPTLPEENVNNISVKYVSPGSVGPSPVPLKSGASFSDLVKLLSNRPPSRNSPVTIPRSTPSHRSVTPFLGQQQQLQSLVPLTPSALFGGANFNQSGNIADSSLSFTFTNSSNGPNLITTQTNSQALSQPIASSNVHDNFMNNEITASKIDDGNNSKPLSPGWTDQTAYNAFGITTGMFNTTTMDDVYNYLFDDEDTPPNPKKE

How the values were obtained:
[1] = molecular target: Kv2.1 N-terminus (amino acids 1-168), in pGBT9 (UniProt P04386); assay: yeast two-hybrid (Y190, pGAD10 x pGBT9), β-galactosidase filter assay
[2] = molecular target: Kvβ1C (carboxyl terminal 329 amino acids of the Kvβ1 subfamily), in pGBT9 (UniProt P04386); assay: as above

| Binder | binding [1] | binding [2] |
| --- | --- | --- |
| KChAP-Y (partial clone of KChAP from W310 to the C-terminus), in pGAD10 (protein, not shown: large carriers) WTCPVCDKKAPYESLIIDGLFMEILNSCSDCDEIQFMEDGSWCPMKPKKEASEVCPPPGYGLDGLQYSPVQEGNQSENKKRVEVIDLTIESSSDEEDLPPTKKHCPVTSAAIPALPGSKGALTSGHQPSSVLRSPAMGTLGSDFLSSLPLHEYPPAFPLGADIQGLDLFSFLQTESQHYSPSVITSLDEQDTLGHFFQFRGTPPHFLGPLAPTLGSSHRSATPAPAPGRVSSIVAPGSSLREGHGGPLPSGPSLTGCRSDVISLD | binds | binds |
| KChAP (K+ Channel Associated Protein), full length, in pGAD10 (protein, not shown: large carriers) MKIKELYRRRFPRKTLGPSDLSLLSLPPGTSPVGSPSPLASIPPTLLTPGTLLGPKREVDMHPPLPQPVHPDVTMKPLPFYEVYGELIRPTTLASTSSQRFEEAHFTFALTPQQLQQILTSREVLPGAKCDYTIQVQLRFCLCETSCPQEDYFPPNLFVKVNGKLCPLPGYLPPTKNGAEPKRPSRPINITPLARLSATVPNTIVVNWSSEFGRNYSLSVYLVRQLTAGTLLQKLRAKGIRNPDHSRALIKEKLTADPDSEVATTSLRVSLMCPLGKMRLTVPCRALTCAHLQSFDAALYLQMNEKKPTWTCPVCDKKAPYESLIIDGLFMEILNSCSDCDEIQFMEDGSWCPMKPKKEASEVCPPPGYGLDGLQYSPVQEGNQSENKKRVEVIDLTIESSSDEEDLPPTKKHCPVTSAAIPALPGSKGALTSGHQPSSVLRSPAMGTLGSDFLSSLPLHEYPPAFPLGADIQGLDLFSFLQTESQHYSPSVITSLDEQDTLGHFFQFRGTPPHFLGPLAPTLGSSHRSATPAPAPGRVSSIVAPGSSLREGHGGPLPSGPSLTGCRSDVISLD | binds | binds |
